Assay results published in article PMC8730687.
Results are given in words; binding and its absence hold for the method and conditions named. For part of these data: In cells and extracts the contact can be indirect. Some results given as binding are weak or reduced against the parent protein; the word gives no strength. Sequences can lack the tags named with a protein.

Protein sequences, listed by entry. Tags and fused reporters are not part of them.
UniProt Q9FYA2: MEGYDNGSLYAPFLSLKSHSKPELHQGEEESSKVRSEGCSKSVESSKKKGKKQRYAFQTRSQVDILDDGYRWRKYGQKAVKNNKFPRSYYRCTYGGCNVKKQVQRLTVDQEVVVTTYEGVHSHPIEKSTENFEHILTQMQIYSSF

B1: SIGMA FACTOR BINDING PROTEIN2 (SIB2), full length, fused to the pGADT7 activation domain (AD, prey) (protein, UniProt O80669 1-141)
chain: MDQSSSTLLINQRKSSSSPTRIPPKQKRKSTTTHKPIKVRYISNPMRVETCPSKFRELVQELTGQDAADLPPSPTTFTAVDLHRPCESEMNLEPLDGEVRGEYYSPLDEEVFNAPQMSAGLSGFFSSGFYNVNALGSIGSL
B2: cLUC-SIB1 (full-length SIB1 in pCAMBIA1300-cLUC) (protein, UniProt Q9LDH1 55-151)
chain: ASKFRELVQELTGQDAVDLQPEPIYSPSSDDHNLSPPAENLAPRVLHQEPFGERDSDCYEPLNAEDMFLPDQMSAGFSGFFSNGFYNVNDFGSIDSM
B3: cLUC-SIB2 (full-length SIB2 in pCAMBIA1300-cLUC) (protein, UniProt O80669 39-141)
chain: VRYISNPMRVETCPSKFRELVQELTGQDAADLPPSPTTFTAVDLHRPCESEMNLEPLDGEVRGEYYSPLDEEVFNAPQMSAGLSGFFSSGFYNVNALGSIGSL

Assays:
[1] = target: WRKY75, full length, fused to the pGBKT7 binding domain (BD, bait) (Arabidopsis) (UniProt Q9FYA2); assay: two-hybrid; WRKY75 and derivatives in pGBKT7 (BD, bait), SIB1 or SIB2 and derivatives in pGADT7 (AD, prey); yeast Y2H Gold; growth on selective media lacking Leu, Trp, His and Ade
[2] = target: nLUC-WRKY75 (full-length WRKY75 in pCAMBIA1300-nLUC) (Arabidopsis) (UniProt Q9FYA2); assay: split reporter; LUC complementation imaging (LCI): nLUC-WRKY75 and cLUC-SIB1 or cLUC-SIB2 co-expressed in N. benthamiana leaves by Agrobacterium EHA105; imaged with a cooled CCD after infiltration

| Binder | binding [1] | binding [2] |
| --- | --- | --- |
| B1 | binds |  |
| B2 |  | binds |
| B3 |  | binds |
